Source: PubChem BioAssay AID602196 (INSERM, 2012)
Purpose: 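Knock-downs that protect lung cancer cells from cisplatin or sensitise them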. Cells: human A549 lung cancer cells. Reagent: siRNA pair against human genes. Duration: 48 h transfection before cisplatin; time from cisplatin to read-out not stated. Treatment: cisplatin at a dose killing half of control-siRNA cells; exact dose and duration not given. Measured: 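Shift in cisplatin death relative to control siRNA, from -50 (all cells die) to +50 (no cells die); siRNAs harmful on their own scored 0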. Direction: two-siRNA summed score (-2 to +2): higher = both siRNAs protect from cisplatin killing; -2 means both sensitise; mean protection from cisplatin (shift in death) and protection from cisplatin (shift in death), siRNA C and protection from cisplatin (shift in death), siRNA D: higher = protection from cisplatin killing. Hit rule: 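siRNAs harmful alone (LDH or WST-1) get 0; others get +1 for less and -1 for more cisplatin killing; genes are active when the two siRNAs give the same sign, summing to ±2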. Meaning of the calls: active = both siRNAs shift cisplatin killing the same way; inactive = no consistent shift, or siRNA harmful alone.
In all, the deposit lists about 23,000 reagents; below is a random part of them. 455 of them (2%) were called active. 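Active includes both protection and sensitisation; some change values fall well beyond the stated -50 to +50 range.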 Not stated in the record: the amount of reagent.

| gene | two-siRNA summed score (-2 to +2) | mean protection from cisplatin (shift in death) (%) | protection from cisplatin (shift in death), siRNA C (%) | protection from cisplatin (shift in death), siRNA D (%) | Call |
| --- | --- | --- | --- | --- | --- |
| LOC402679 | 0 | 3.7 | 10.1 | -2.7 | inactive |
| LOC440937 | 0 | 9.3 | 12.8 | 5.8 | inactive |
| GBP3 (guanylate binding protein 3) | 1 | -3.7 | -15.6 | 8.3 | inactive |
| TSPAN18 (tetraspanin 18) | 0 | 11.2 | 10.4 | 12 | inactive |
| IQCC (IQ motif containing C) | 0 | -1.5 | -1.1 | -1.8 | inactive |
| PDS5A (PDS5 cohesin associated factor A) | 0 | 1.3 | 9.4 | -6.7 | inactive |
| DNAJA4 (DnaJ heat shock protein family (Hsp40) member A4) | 0 | -2.1 | 1.2 | -5.5 | inactive |
| LOC339324 | 0 | 4.8 | 20.4 | -10.9 | inactive |
| USP46 (ubiquitin specific peptidase 46) | 1 | 6.8 | -8.8 | 22.5 | inactive |
| HIRA (histone cell cycle regulator) | 1 | 13 | 5.2 | 20.8 | inactive |
| TJAP1 (tight junction associated protein 1) | 0 | -10.6 | -7.7 | -13.4 | inactive |
| OLFM2 (olfactomedin 2) | 1 | 15 | 7.5 | 22.6 | inactive |
| ANKRD13C-DT (ANKRD13C divergent transcript) | 0 | -9.8 | -9 | -10.6 | inactive |
| IFT27 (intraflagellar transport 27) | 0 | -11.8 | -18.5 | -5.2 | inactive |
| ATIC | 1 | 11.7 | 14.4 | 8.9 | inactive |
| SIM1 (SIM bHLH transcription factor 1) | 0 | 2.2 | -8.7 | 13 | inactive |
| PSRC1 (proline and serine rich coiled-coil 1) | 1 | 13.2 | 12.7 | 13.6 | inactive |
| PRKCQ (protein kinase C theta) | -1 | -7.3 | -14.6 | 0 | inactive |
| CYP2J2 (cytochrome P450 family 2 subfamily J member 2) | 0 | 8.3 | 8.3 | 8.3 | inactive |
| CHAF1A (chromatin assembly factor 1 subunit A) | 0 | 10.9 | 18.9 | 2.8 | inactive |
| MCF2L (MCF.2 cell line derived transforming sequence like) | 1 | 13.7 | 8.2 | 19.2 | inactive |
| CLXN (calaxin) | 0 | 7.9 | 15.3 | 0.6 | inactive |
| MUC6 (mucin 6, oligomeric mucus/gel-forming (gene/pseudogene)) | -1 | -16.5 | -33.5 | 0.5 | inactive |
| POPDC2 (popeye domain cAMP effector 2) | 0 | -3.3 | -4.8 | -1.8 | inactive |
| PTDSS2 (phosphatidylserine synthase 2) | 0 | 0.3 | -4.9 | 5.6 | inactive |
| MGC40489 | 0 | 6.5 | 1 | 12.1 | inactive |
| MYH8 (myosin heavy chain 8) | 0 | 2.9 | -8 | 13.8 | inactive |
| LOC400800 | 0 | 1.4 | -5.2 | 8.1 | inactive |
| LOC343495 | 2 | 21.8 | 18.9 | 24.6 | active |
| LOC143244 | 0 | 5 | 7.9 | 2.1 | inactive |
| NFKBID (NFKB inhibitor delta) | 0 | 0.7 | -5.4 | 6.9 | inactive |
| KCNJ4 (potassium inwardly rectifying channel subfamily J member 4) | -1 | -12 | -19.5 | -4.6 | inactive |
| PRR14 (proline rich 14) | 0 | 2.8 | 2.9 | 2.7 | inactive |
| TPH1 (tryptophan hydroxylase 1) | 1 | 16.9 | 15.6 | 18.2 | inactive |
| CNNM4 | 0 | 4.4 | 8.3 | 0.5 | inactive |
| GAL3ST4 (galactose-3-O-sulfotransferase 4) | 0 | 2.7 | 2.3 | 3.1 | inactive |
| CHCHD2 (coiled-coil-helix-coiled-coil-helix domain containing 2) | 0 | 6.1 | 6.9 | 5.2 | inactive |
| MEF2C (myocyte enhancer factor 2C) | -1 | -3.9 | -17.1 | 9.2 | inactive |
| EBLN2 (endogenous Bornavirus like nucleoprotein 2) | 0 | 6.6 | 8.9 | 4.3 | inactive |

Laid out differently: entries from further up.
gene,two-siRNA summed score (-2 to +2),mean protection from cisplatin (shift in death) (%),"protection from cisplatin (shift in death), siRNA C (%)","protection from cisplatin (shift in death), siRNA D (%)",Call
MYH8 (myosin heavy chain 8),0,2.9,-8,13.8,inactive
LOC400800,0,1.4,-5.2,8.1,inactive
LOC343495,2,21.8,18.9,24.6,active
LOC143244,0,5,7.9,2.1,inactive
NFKBID (NFKB inhibitor delta),0,0.7,-5.4,6.9,inactive
KCNJ4 (potassium inwardly rectifying channel subfamily J member 4),-1,-12,-19.5,-4.6,inactive
